Reference: the supplement of paper PMC8104966
The list shows a part of the results. Single values are uncertain here, since repeats match poorly.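 U2OS cells carrying ACE2 were mixed with U2OS cells carrying full-length spike, and fusion was scored by imaging as the share of nuclei showing both cell types' fluorescent markers. A compound counts as an inhibitory hit when it is non-toxic and its fusion z-score falls below -3, meaning more than three standard deviations below the plate's DMSO wells.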

Each compound was assayed on U2OS ACE2 x SARS-CoV-2 spike co-culture (assay: cell-cell fusion (fraction fused) z-score vs plate DMSO control; higher = more fusion). Conditions: 30 µM; 5 h; toxicity class: non-toxic, passed QC.

SMILES | cell-cell fusion (z-score)
CCC(=O)OC(OP(=O)(CCCCc1ccccc1)CC(=O)N1C[C@H](C2CCCCC2)C[C@H]1C(=O)[O-])C(C)C.[Na+] (some centres not stated) [Fosinopril sodium] | inactive: 2.56
CC(C)OC(=O)[C@H](C)N[P@](=O)(CO[C@H](C)Cn1cnc2c(N)ncnc21)Oc1ccccc1.CC(C)OC(=O)[C@H](C)N[P@](=O)(CO[C@H](C)Cn1cnc2c(N)ncnc21)Oc1ccccc1.O=C(O)/C=C/C(=O)O [Tenofovir alafenamide fumarate] | inactive: -0.234
COc1ccc(-c2coc3cc(OC)ccc3c2=O)cc1 | inactive: 2.21
C[C@]12C=CC(=O)C=C1CCC1C2[C@@H](O)C[C@@]2(C)C1CC[C@]2(O)C(=O)COC(=O)CCC(=O)O (some centres not stated) | inactive: -0.159
CC(C)(C#N)O[C@@H]1O[C@H](CO)[C@@H](O)[C@H](O)[C@H]1O | inactive: 1.23
NC(=O)c1cn(Cc2c(F)cccc2F)nn1 [Rufinamide] | inactive: 2.77
CC1NC(=O)NC1=O (configuration not stated) | inactive: 0.478
CC/C(=C(\c1ccccc1)c1ccc(OCCN(C)C)cc1)c1ccccc1.O=C(O)CC(O)(CC(=O)O)C(=O)O [Tamoxifen Z-isomer citrate] | inactive: 2.47
CC(=O)NC[C@H]1CN(c2ccc(N3CCOCC3)c(F)c2)C(=O)O1 [Linezolid] | inactive: 1.99
CC(=O)NC[C@H]1CN(c2ccc(N3CCOCC3)c(F)c2)C(=O)O1 | inactive: 2.25
CC1=C(/C=C/C(C)=C/C=C/C(C)=C/C=C/C=C(C)/C=C/C=C(C)/C=C/C2=C(C)CCCC2(C)C)C(C)(C)CCC1 [beta-CAROTENE [2mM]] | inactive: 1.28
Cl.O=S(=O)(c1cccc2cnccc12)N1CCCNCC1 [Fasudil (HA-1077) HCl] | inactive: 2.94
N#C/C(=C\c1ccc(-c2cc(Cl)ccc2Cl)o1)C(=O)Nc1cccc2ncccc12 | inactive: 2.03
C[N+]1(C)C2CCC1CC(OC(=O)C(CO)c1ccccc1)C2.[Br-] (configuration not stated) [Atropine methyl bromide] | inactive: 1.91
CCC(CC)CC1(C(=O)Nc2ccccc2SC(=O)C(C)C)CCCCC1 [Dalcetrapib(JTT-705)] | inactive: 1.64
C=CCc1ccc(OC(=O)c2ccccc2)c(OC)c1 | inactive: 3.94
C[C@@H]1COCCN1c1cc(C2(S(C)(=O)=O)CC2)nc(-c2cccc3[nH]ccc23)n1 | inactive: 0.881
Oc1ccc(Nc2nc(-c3ccc(Cl)cc3)cs2)cc1 | active: -8.58
CS(=O)(=O)O.Cc1c(O)cccc1C(=O)N[C@@H](CSc1ccccc1)[C@H](O)CN1C[C@H]2CCCC[C@H]2C[C@H]1C(=O)NC(C)(C)C [Nelfinavir mesylate hydrate] | active: -6.04
C[C@H](Cc1ccccc1)Nc1ncnc2c1ncn2[C@@H]1O[C@H](CO)[C@H](O)C1O (stereo partly drawn) [R(-)-N6-(2-Phenylisopropyl)adenosine] | inactive: 1.44
COC(=O)C[C@H]1C(C)(C)C2(O)OC34CC2C(=O)[C@]1(C)C3CC[C@]1(C)C4=CC(=O)O[C@H]1c1ccoc1 (stereo partly drawn) [8beta-HYDROXYCARAPIN, 3,8-HEMIACETAL] | inactive: 2.06

SMILES | cell-cell fusion (z-score)
CC(=O)Oc1ccc(/C=C/c2cc(OC(C)=O)cc(OC(C)=O)c2)cc1 | inactive: 2.25
CCCOc1ccc(C(=O)OCCN(CC)CC)cc1N.Cl | inactive: 3.5
CC(=O)O[C@H]1CC2(C)[C@@H](C[C@@H](O)[C@H]3[C@@]4(C)CC[C@@H](O)[C@@H](C)[C@@H]4CC[C@@]32C)/C1=C(/CCC=C(C)C)C(=O)[O-].[Na+] (some centres not stated) [Fusidic acid sodium] | inactive: 4.88
COc1nc(C)nc(Cl)c1NC1=NCCN1.Cl [Moxonidine hydrochloride] | inactive: 2.24
C=C[C@@H]1C[C@]1(NC(=O)[C@@H]1C[C@@H]2CN1C(=O)[C@H](C(C)(C)C)NC(=O)O[C@@H]1C[C@H]1CCCCCc1nc3ccc(OC)cc3nc1O2)C(=O)NS(=O)(=O)C1CC1 [Grazoprevir] | inactive: 1.81
O=C(O)c1cc(=O)[nH]c(=O)[nH]1 | inactive: 0.353
CC1=C(/C=C/C(C)=C/C=C/C(C)=C/C=C/C=C(C)/C=C/C=C(C)/C=C/C(=O)[C@]2(C)C[C@@H](O)CC2(C)C)C(C)(C)C[C@H](O)C1 | inactive: 2
Cl.OC(CCN1CCCCC1)(c1ccccc1)C1CCCCC1 (configuration not stated) | inactive: 2.55
Cl.OC(CCN1CCCCC1)(c1ccccc1)C1CCCCC1 (configuration not stated) [Trihexyphenidyl hydrochloride] | inactive: 0.554
Nc1ccn([C@H]2CC[C@@H](CO)O2)c(=O)n1 | inactive: 1.11
Nc1ccn([C@H]2CC[C@@H](CO)O2)c(=O)n1 [2',3'-dideoxycytidine] | inactive: 2.34
CC(C)(CO)[C@@H](O)C(=O)NCCCO [Dexpanthenol] | inactive: 1.14
CC(C)(Oc1ccc(C(=O)c2ccc(Cl)cc2)cc1)C(=O)O | inactive: 1.17
CC[N+](CC)(CC)CC.[Cl-] [Tetraethylammonium chloride] | inactive: 0.82
CC(C)Oc1ccc2c(=O)cc(-c3ccccc3)oc2c1 | inactive: 0.61
C[C@@H](O)[C@H]1C(=O)N2C(C(=O)O)=C(SCCNC=N)C[C@H]12.O [Imipenem] | inactive: 2.96
C[C@]12CCC3=C4CCC(=O)C=C4CC[C@H]3[C@@H]1CC[C@@]2(O)CC#N [Dienogest] | inactive: 1.01
Cc1ccccc1/C=C/C1=NCCN1.O=C(O)C(=O)O [Metrazoline oxalate] | inactive: 3.21
Nc1nc(N)c(N=O)c(OCC2CCCCC2)n1 | inactive: 0.346
Br.C/N=c1/nc(-c2ccccc2)n(-c2ccccc2)s1 | inactive: 2.21
C#Cc1cccc(Nc2ncnc3cc(OCCOC)c(OCCOC)cc23)c1.Cl [Erlotinib HCl] | inactive: 0.843

A run of entries from further up, for reference:
SMILES | cell-cell fusion (z-score)
CC1=C(/C=C/C(C)=C/C=C/C(C)=C/C=C/C=C(C)/C=C/C=C(C)/C=C/C(=O)[C@]2(C)C[C@@H](O)CC2(C)C)C(C)(C)C[C@H](O)C1 | inactive: 2
Cl.OC(CCN1CCCCC1)(c1ccccc1)C1CCCCC1 (configuration not stated) | inactive: 2.55
Cl.OC(CCN1CCCCC1)(c1ccccc1)C1CCCCC1 (configuration not stated) [Trihexyphenidyl hydrochloride] | inactive: 0.554
Nc1ccn([C@H]2CC[C@@H](CO)O2)c(=O)n1 | inactive: 1.11
Nc1ccn([C@H]2CC[C@@H](CO)O2)c(=O)n1 [2',3'-dideoxycytidine] | inactive: 2.34
CC(C)(CO)[C@@H](O)C(=O)NCCCO [Dexpanthenol] | inactive: 1.14
CC(C)(Oc1ccc(C(=O)c2ccc(Cl)cc2)cc1)C(=O)O | inactive: 1.17
CC[N+](CC)(CC)CC.[Cl-] [Tetraethylammonium chloride] | inactive: 0.82
CC(C)Oc1ccc2c(=O)cc(-c3ccccc3)oc2c1 | inactive: 0.61
C[C@@H](O)[C@H]1C(=O)N2C(C(=O)O)=C(SCCNC=N)C[C@H]12.O [Imipenem] | inactive: 2.96
